# Experimental data from the supplement of paper PMC5949888.
# Most values lie at the floor of the assay. Slopes are relative: functional sequences can read slightly below zero.
# Test system: Saccharomyces cerevisiae PS128 hsf1 delta, HSF1(1-493) fusion
# Assay: growth estimate (transactivation domain function in HSF1 fusion, heat-shock survival) (a.u. (slope of normalised read count over time)); higher = stronger growth at 37°C, i.e. more transactivation activity
# Details: library: random library
row,Substance,growth estimate
1,QAIPGVMDLGALVLSS,< -0.25
2,QAMSNWEH,< -0.25
3,QAQVDGWVSLSLRS,< -0.25
4,QAREIRPALECLMIGRVYGC,< -0.25
5,QARFRGPIVHSSVLVRPRSN,< -0.25
6,QARKLHQP,< -0.25
7,QARSRSAWVGSFCATRGAAF,< -0.25
8,QAS,< -0.25
9,QASNRTIWAVVVDAING,< -0.25
10,QATAVEYYGLRAAHSRLGAR,< -0.25
11,QATLALRGLDFRSSECLSRP,< -0.25
12,QAVHYFSGRRQGSRGPYSGW,< -0.25
13,QCQRSGLEWSDGR,< -0.25
14,QCRAPGFATRHLLTVLHLNL,< -0.25
15,QCRRFSKVTMVSRTRDGDPA,< -0.25
16,QCSLILIVVWIRDGK,< -0.25
17,QCSRGNGHAFANHSK,< -0.25
18,QCYGCLGMGHSWGAVRNGEA,< -0.25
19,QCYVLGTNSVVPHNRNSAPV,< -0.25
20,QDDTSARIPLPIGPPGSVVL,< -0.25
21,QDEERPGD,< -0.25
22,QDGCSGEMGLERTTISVLME,< -0.25
23,QDGGS,< -0.25
24,QDGSRRACYVG,< -0.25
25,QDHYMHGLVPFSLRSKA,< -0.25
26,QDLEYH,-0.138

row,Substance,growth estimate
1,QDLPGDSNRSEVSY,< -0.25
2,QDLRSLPRERNGEKYCGTGR,< -0.25
3,QDRHVLRRSG,< -0.25
4,QDSALLL,< -0.25
5,QDVRETQLARAM,< -0.25
6,QDWF,< -0.25
7,QEACGGYAWYW,< -0.25
8,QEARERHI,< -0.25
9,QEARLEWSSVR,< -0.25
10,QEDGWLRVPGTRDAT,< -0.25
11,QEDNGGLRGGGAQVR,< -0.25
12,QENSRSLSTEVCGDILGVAS,< -0.25
13,QEPQRK,< -0.25
14,QEPRYGAIRISS,< -0.25
15,QEQA,< -0.25
16,QESHEDALPEICKRYLAVPS,< -0.25
17,QESLWADAVLHSRF,< -0.25
18,QESSHCYDLNLMKSRNPNSH,< -0.25
19,QETHSGLVKSRQLHRFSEE,< -0.25
20,QEVFISRVSKA,< -0.25
21,QEYKKMRDRAS,< -0.25
22,QFGRLEKYES,< -0.25
23,QFGRQAYPDYRKDTSSEGNG,< -0.25
24,QFKTGRGLNQCTLAQSLCRI,< -0.25
25,QFLGGTEDNHRRYAKL,< -0.25
26,QFPIPRTLGTE,< -0.25

row,Substance,growth estimate
1,QFPRAEGDAARKDTRLVKSR,< -0.25
2,QFRQYGKTVLCVVQ,< -0.25
3,QFVPCVARTGAFKTYTTPSS,< -0.25
4,QGAATV,< -0.25
5,QGALGACAWLVVDTASYLAN,< -0.25
6,QGFGRLKLCTCCQCP,< -0.25
7,QGFHLGGIGNVEDFVISVTV,< -0.25
8,QGGGLRWS,< -0.25
9,QGGHWG,< -0.25
10,QGGYRDSCLKCYLFGV,0.0906
11,QGHE,< -0.25
12,QGILLVGSGSEWVDTSADTL,< -0.25
13,QGILRGATLLG,< -0.25
14,QGIRHVRRISGRVVAVTDRG,< -0.25
15,QGKFAKVLVAVVDGGVRRYV,< -0.25
16,QGLVPLEVA,< -0.25
17,QGNAGILVSMLAAEKRSRWD,< -0.25
18,QGQRPVLRFALLARGPQ,< -0.25
19,QGRAWS,< -0.25
20,QGRGGRGTASHTSYLIWW,< -0.25
21,QGSDFLAFQKPVLQSAVTLT,< -0.25
22,QGSGV,< -0.25
23,QGSRAFAAMVQFGIIPNAWP,< -0.25
24,QGTERVQKRFMR,< -0.25
25,QGTGSHLGLFRLVLKAVGLE,< -0.25
26,QGTQVPGYRIFSNEIGFKGR,< -0.25

row,Substance,growth estimate
1,QGVPTYFAVM,< -0.25
2,QGYLKGAQPYTGCKQRIQLR,< -0.25
3,QHAKLYRRQGVKTVKGRMAG,< -0.25
4,QHHGSLTTPP,< -0.25
5,QHIPTERGTNSGRLREMLRA,< -0.25
6,QHISFPIRRHFGPFLVRTNC,< -0.25
7,QHKQ,< -0.25
8,QHRD,< -0.25
9,QHRGRSVRIRIGYGRC,< -0.25
10,QHRRELPGTVLFY,< -0.25
11,QICDWPQSLAG,< -0.25
12,QIEPALGLPVACKKSDES,< -0.25
13,QIKLLLGFSLI,< -0.25
14,QIL,< -0.25
15,QIRAFRQIMQPFPIAGRLVI,< -0.25
16,QIRASRVH,< -0.25
17,QIRGRISSRERPPVNSIGFR,< -0.25
18,QIS,< -0.25
19,QISDNKYVEVPR,< -0.25
20,QIWWPVFDGACTDKLSVGCP,< -0.25
21,QIYIATTHSLAGQSSEFVKG,< -0.25
22,QKDGRVFIDNKRR,0.021
23,QKDN,< -0.25
24,QKDTGASSSVIRSTNLMRCA,< -0.25
25,QKGKQGLSMVSQKVNEEVSE,< -0.25
26,QKP,< -0.25

row,Substance,growth estimate
1,QKPAGRQRVKHRL,< -0.25
2,QKRGSL,< -0.25
3,QKRGSLKIKTNYSERSELES,< -0.25
4,QKS,< -0.25
5,QLASQIYGTWP,< -0.25
6,QLCLWQLIVLAQRSPRLRQI,< -0.25
7,QLCQITVSIAVISPFSKDFA,< -0.25
8,QLDGRLISPIPVGIINAS,< -0.25
9,QLDSRLS,< -0.25
10,QLEKRNLVCEL,-0.243
11,QLELGFVHCAVAPALRCGRP,< -0.25
12,QLENHDLGSSALGFLGPART,< -0.25
13,QLEREQLLFVTCLCNPAYQE,< -0.25
14,QLEVDNASVHLLGRPFNTAV,< -0.25
15,QLEWVKT,< -0.25
16,QLGPGRPSAAALGQVANVLN,< -0.25
17,QLGPTFAFVTAHNGAGRCLQ,< -0.25
18,QLGRDVALVQLHLSGKGPVI,< -0.25
19,QLH,< -0.25
20,QLHSPRRAVA,< -0.25
21,QLIQNPTAVCNMLSNYGSFF,< -0.25
22,QLL,< -0.25
23,QLLDST,< -0.25
24,QLLGDLVVGFRLVYRSGPRP,< -0.25
25,QLLSHLCD,< -0.25
26,QLMNVARPMTHIV,< -0.25

row,Substance,growth estimate
1,QLPALRKNVDNAQSRTTHRN,< -0.25
2,QLPYWGCYISCGHAL,< -0.25
3,QLQYTL,< -0.25
4,QLRDEDVRRVEIAKAISPMT,< -0.25
5,QLRGFCPDKTLEGYRVKVGD,< -0.25
6,QLRMSLLQLSFERAWTEIHV,< -0.25
7,QLRRCICLPSRRRR,< -0.25
8,QLS,< -0.25
9,QLSIDMT,< -0.25
10,QLSQTGPTPLSEACRESVRT,< -0.25
11,QLSSEDSRR,< -0.25
12,QLTEGGQFVSRGDESYYKGD,< -0.25
13,QLTHLGETTSA,< -0.25
14,QLVCSYPGR,< -0.25
15,QLVRIYWPSRYKIA,< -0.25
16,QLWSRKVRMLNRRERAGINF,< -0.25
17,QLYAPQSVYSNPNITWTTPK,< -0.25
18,QMDDGSACDG,< -0.25
19,QMGQASSIILAGCYSALRGV,< -0.25
20,QMIVL,< -0.25
21,QMMRHKVATQ,< -0.25
22,QMMVSRPRGRN,< -0.25
23,QNALSRHSPPCNDFPVEYTN,< -0.25
24,QNEVATNSEYQ,< -0.25
25,QNIRDLRRAWLGCREAHVGL,< -0.25
26,QNKRIRQIYVSERKTTAQ,< -0.25

# For reference, part of the list above.
row,Substance,growth estimate
15,QIRAFRQIMQPFPIAGRLVI,< -0.25
16,QIRASRVH,< -0.25
17,QIRGRISSRERPPVNSIGFR,< -0.25
18,QIS,< -0.25
19,QISDNKYVEVPR,< -0.25
20,QIWWPVFDGACTDKLSVGCP,< -0.25

# An excerpt of these results, with bars between the fields:
row | Substance | growth estimate
5 | QLRGFCPDKTLEGYRVKVGD | < -0.25
19 | QMGQASSIILAGCYSALRGV | < -0.25

# Further entries.

row,Substance,growth estimate
1,QNL,< -0.25
2,QNLSGTRL,< -0.25
3,QNQ,< -0.25
4,QNRRECNLGFKFCAEVHDTR,< -0.25
5,QNT,< -0.25
6,QPAYCLYRLSAT,< -0.25
7,QPEIQGEIVGARRRNLWDST,< -0.25
8,QPG,< -0.25
9,QPIVPRTNYGLAVS,-0.243
10,QPIYGTALKPRT,< -0.25
11,QPKS,< -0.25
12,QPLSVV,< -0.25
13,QPNTGTQRLIRHRQTVHWIN,< -0.25
14,QPSAGHDLLM,< -0.25
15,QPSAKAPISGAIVLRKFTGA,< -0.25
16,QPVCLRSIMVHEPVGFESTN,< -0.25
17,QPVGLVR,< -0.25
18,QPVIQR,< -0.25
19,QQLTDRPRRRLP,< -0.25
20,QQLTSVGNASRMRIAIHIVW,< -0.25
21,QQPHFGVHVAS,< -0.25
22,QQRFNHGSVPAAGVTAGGRD,< -0.25
23,QQRLTNFHGNSRSVSKPRRP,< -0.25
24,QQVIVFHREQIRSLVSLGRH,< -0.25
25,QRAIRPARSGTYASH,< -0.25
26,QRAS,< -0.25

row,Substance,growth estimate
1,QRAYLAVNFCAAWIKAMQ,< -0.25
2,QRDLDVC,< -0.25
3,QRDNTRRPNNGSWCGWPVRE,< -0.25
4,QRETALGP,< -0.25
5,QRFLEFGGT,< -0.25
6,QRFSLLLLIGPIPSKYSSTQ,< -0.25
7,QRGAWA,< -0.25
8,QRGLSFASNSVHWKGWGVRR,< -0.25
9,QRGPALEPEDGRRSVAPSGQ,< -0.25
10,QRGRPTDLPWTPSYHYMAER,< -0.25
11,QRHEKACRDQPCTRSAGLVP,< -0.25
12,QRHGECADGTN,< -0.25
13,QRINRSGALKQVNFIGWLVV,< -0.25
14,QRIVNHRM,< -0.25
15,QRKGGQDTFGQWLRLALINV,< -0.25
16,QRLWGTPVGGYAEKKKWREC,< -0.25
17,QRNVAFRSD,< -0.25
18,QRPTSNSITS,< -0.25
19,QRPVNATPGPHSKLCSAHGA,< -0.25
20,QRQAGLRLSGSRSGLYHPYH,< -0.25
21,QRRDSAMHAFGI,-0.168
